Results deposited as PubChem BioAssay AID1259254 (NCATS, 2017).
Screen: 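Finding genes that stop cells copying their DNA twice in one cycle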 (primary screen). Cell system: human HCT116 colorectal cancer cells. Reagent: single siRNA against human genes. Timing: 3 days. Read-out: 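Nuclei stained with Hoechst and imaged; cell-cycle phase assigned by DNA content; G2 share scaled per plate, non-targeting siRNA 0%, GMNN siRNA 100%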. Scale: G2 robust z-score and G2 cells, % of GMNN control: higher = more G2 cells, more excess DNA replication. Hit rule: 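An siRNA counts as active if its G2 robust z-score lies at least 5 MADs above the screen median; here such calls match roughly 38% of GMNN control or more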.
The deposit covers about 59,000 reagents; this is a random part of them. About 1,550 of all reagents (2.6%) count as active. 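G2 share is only a proxy for re-replication; each gene was hit by three separate siRNAs, and active genes were retested.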 The numbers tell different reagents against one gene apart. Not all columns of the deposit are shown. Not given: the amount of reagent.

Which result is listed for BMS1P15 (BMS1 pseudogene 15) #1?
G2 robust z-score: 0.0169; G2 cells, % of GMNN control: 3.09; outcome: inactive

For BMS1P15 (BMS1 pseudogene 15) #2, what was measured?
G2 robust z-score: 0.0586; G2 cells, % of GMNN control: 3.38; outcome: inactive

What did the screen give for BMS1P15 (BMS1 pseudogene 15) #3?
G2 robust z-score: 0.407; G2 cells, % of GMNN control: 5.83; outcome: inactive

With ADH4 (alcohol dehydrogenase 4 (class II), pi polypeptide) #1, how do the results read?
G2 robust z-score: -0.531; G2 cells, % of GMNN control: -0.767; outcome: inactive

For ADH4 (alcohol dehydrogenase 4 (class II), pi polypeptide) #2, what does the deposit list?
G2 robust z-score: 1.91; G2 cells, % of GMNN control: 16.4; outcome: inactive

What is on record for ADH4 (alcohol dehydrogenase 4 (class II), pi polypeptide) #3?
G2 robust z-score: -0.88; G2 cells, % of GMNN control: -3.23; outcome: inactive

What did the screen give for PRR19 (proline rich 19) #1?
G2 robust z-score: -0.3; G2 cells, % of GMNN control: 0.856; outcome: inactive

How did the screen score PRR19 (proline rich 19) #2?
G2 robust z-score: 1.36; G2 cells, % of GMNN control: 12.5; outcome: inactive

With PRR19 (proline rich 19) #3, what does the deposit list?
G2 robust z-score: -0.786; G2 cells, % of GMNN control: -2.56; outcome: inactive

What is on record for HNRNPA1P60 (heterogeneous nuclear ribonucleoprotein A1 pseudogene 60) #1?
G2 robust z-score: 1.24; G2 cells, % of GMNN control: 11.7; outcome: inactive

What is on record for HNRNPA1P60 (heterogeneous nuclear ribonucleoprotein A1 pseudogene 60) #2?
G2 robust z-score: 0.15; G2 cells, % of GMNN control: 4.02; outcome: inactive

What is on record for HNRNPA1P60 (heterogeneous nuclear ribonucleoprotein A1 pseudogene 60) #3?
G2 robust z-score: -0.946; G2 cells, % of GMNN control: -3.69; outcome: inactive

With FAM180A (family with sequence similarity 180 member A) #1, what was measured?
G2 robust z-score: 0.884; G2 cells, % of GMNN control: 9.19; outcome: inactive

With FAM180A (family with sequence similarity 180 member A) #2, how do the results read?
G2 robust z-score: 1.11; G2 cells, % of GMNN control: 10.8; outcome: inactive

What is on record for FAM180A (family with sequence similarity 180 member A) #3?
G2 robust z-score: -0.96; G2 cells, % of GMNN control: -3.79; outcome: inactive

How did the screen score EEF1A1P47 #1?
G2 robust z-score: 6.71; G2 cells, % of GMNN control: 50.2; outcome: active

With EEF1A1P47 #2, how do the results read?
G2 robust z-score: 1.44; G2 cells, % of GMNN control: 13.1; outcome: inactive

What did the screen give for EEF1A1P47 #3?
G2 robust z-score: -0.937; G2 cells, % of GMNN control: -3.63; outcome: inactive

Part of the list above, set out differently.
target | reagent no. | G2 robust z-score | G2 cells, % of GMNN control | outcome
BMS1P15 (BMS1 pseudogene 15) | 3 | 0.407 | 5.83 | inactive
ADH4 (alcohol dehydrogenase 4 (class II), pi polypeptide) | 1 | -0.531 | -0.767 | inactive
